Data from patent US20170319722A1.
No constants are given. Whether binding was seen depends on the method and setting. Some results given as binding are weak or reduced against the parent protein; the word gives no strength.

Chains of the proteins cited; added tags and fusions are not shown. Residues count along the entry.
UniProt P01732, residues 22-182: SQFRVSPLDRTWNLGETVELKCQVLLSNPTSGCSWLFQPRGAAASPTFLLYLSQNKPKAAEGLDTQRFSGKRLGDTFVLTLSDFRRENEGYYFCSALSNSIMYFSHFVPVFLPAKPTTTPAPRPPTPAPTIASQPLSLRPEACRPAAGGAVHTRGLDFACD

Assays:
[1] = target: His-tagged CD8α human recombinant protein (TP760215, Origene) (human) (UniProt P01732); test: point ELISA, 50 nM His-tagged CD8α in human serum, immobilised ligand
[2] = target: His-tagged CD8α human recombinant protein (TP760215, Origene) (human) (UniProt P01732); test: on-bead target screen, 150 nM His-tagged CD8α, anti-His-AP, BCIP/NBT

| Binder | binding [1] | binding [2] |
| --- | --- | --- |
| HGRGH (N-terminal biotin-PEG3; triazole-cyclized (Cy) between flanking Pra and Az4) [biotin-PEG3-Cy(HGRGH)] | binds | – |
| AKYRG (N-terminal biotin-PEG3; triazole-cyclized (Cy) between flanking Pra and Az4) [biotin-PEG3-Cy(AKYRG)] | binds | – |
| PWTHG (N-terminal biotin-PEG3; triazole-cyclized (Cy) between flanking Pra and Az4) [biotin-PEG3-Cy(PWTHG)] | binds | – |
| HGSYG (on TentaGel bead; N-terminal Pra; triazole-cyclized; C-terminal Met-TG) [H2N-Pra-Cy(HGSYG-click)-Met-TG, hit1 of Table 1 (on bead)] | – | binds |
| KRLGA (on TentaGel bead; N-terminal Pra; triazole-cyclized; C-terminal Met-TG) [H2N-Pra-Cy(KRLGA-click)-Met-TG, hit2 of Table 1 (on bead)] | – | binds |
| AKYRG (on TentaGel bead; N-terminal Pra; triazole-cyclized; C-terminal Met-TG) [H2N-Pra-Cy(AKYRG-click)-Met-TG, hit3 of Table 1 (on bead)] | – | binds |
